Laboratory results published in paper PMC10899660, “Global fungal-host interactome mapping identifies host targets of candidalysin” (Nature Communications, 2024).
These are yes or no findings as the source states them, for the method shown. Some entries that bind do so weakly or less than the wild type. Tags and fused reporters may be left off the sequences shown.

The chains behind the UniProt entries cited, without tags or fusion partners. Residues count along the entry.
Ece1-II peptide, Gal4 activation domain fusion (Q07730, residues 32-61): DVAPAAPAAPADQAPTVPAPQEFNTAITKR
Ece1-IV peptide, Gal4 activation domain fusion (Q07730, residues 94-126): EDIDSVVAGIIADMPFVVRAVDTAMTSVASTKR
Ece1-V peptide, Gal4 activation domain fusion (Q07730, residues 127-160): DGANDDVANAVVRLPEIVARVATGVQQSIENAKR
Ece1-VI peptide, Gal4 activation domain fusion (Q07730, residues 161-194): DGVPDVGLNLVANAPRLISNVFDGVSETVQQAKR
Ece1-VII peptide, Gal4 activation domain fusion (Q07730, residues 195-228): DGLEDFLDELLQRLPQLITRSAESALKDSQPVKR
Ece1-VIII peptide, Gal4 activation domain fusion (Q07730, residues 229-271): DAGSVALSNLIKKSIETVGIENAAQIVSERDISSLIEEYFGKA

B1: OR7C2, DB fusion (human ORFeome clone) (protein, UniProt O60412 1-319)
chain: MERGNQTEVGNFLLLGFAEDSDMQLLLHGLFLSMYLVTIIGNLLIILTISSDSHLHTPMYFFLSNLSFADICFTSTTVPKMLVNIQTQSKMITFAGCLTQIFFFIAFGCLDNLLLTMTAYDRFVAICYPLHYTVIMNPRLCGLLVLGSWCISVMGSLLETLTILRLSFCTNMEIPHFFCDPSEVLKLACSDTFINNIVMYFVTIVLGVFPLCGILFSYSQIFSSVLRVSARGQHKAFSTCGSHLSVVSLFYGTGLGVYLSSAVTPPSRTSLAASVMYTMVTPMLNPFIYSLRNKDMKGSLGRLLLRATSLKEGTIAKLS
B2: UBTD2, DB fusion (human ORFeome clone) (protein, UniProt Q8WUN7 1-234)
chain: MGGCVGAQHDSSGSLNENSEGTGVALGRNQPLKKEKPKWKSDYPMTDGQLRSKRDEFWDTAPAFEGRKEIWDALKAAAHAFESNDHELAQAIIDGANITLPHGALTECYDELGNRYQLPVYCLAPPINMIEEKSDIETLDIPEPPPNSGYECQLRLRLSTGKDLKLVVRSTDTVFHMKRRLHAAEGVEPGSQRWFFSGRPLTDKMKFEELKIPKDYVVQVIVSQPVQNPTPVEN
B3: OR7A10, DB fusion (human ORFeome clone) (protein, UniProt O76100 1-309)
chain: MKSWNNTIILEFLLLGISEEPELQAFLFGLFLSMYLVTVLGNLLIILATISDSHLHTPMYFFLSNLSFVDICFVSTTVPKMLVNIQTHNKVITYAGCITQMCFFLLFVGLDNFLLTVMAYDRFVAICHPLHYMVIMNPQLCGLLVLASWIMSVLNSMLQSLMVLPLPFCTHMEIPHFFCEINQVVHLACSDTFLNDIVMYFAVALLGGGPLTGILYSYSKIVSSIRAISSAQGKYKAFSTCASHLSVVSLFYGTCLGVYLSSAATHNSHTGAAASVMYTVVTPMLNPFIYSLRNKHIKGAMKTFFRGKQ
B4: UBXN2B, DB fusion (human ORFeome clone) (protein, UniProt Q14CS0 1-331)
chain: MAEGGGPEPGEQERRSSGPRPPSARDLQLALAELYEDEVKCKSSKSNRPKATVFKSPRTPPQRFYSSEHEYSGLNIVRPSTGKIVNELFKEAREHGAVPLNEATRASGDDKSKSFTGGGYRLGSSFCKRSEYIYGENQLQDVQILLKLWSNGFSLDDGELRPYNEPTNAQFLESVKRGEIPLELQRLVHGGQVNLDMEDHQDQEYIKPRLRFKAFSGEGQKLGSLTPEIVSTPSSPEEEDKSILNAVVLIDDSVPTTKIQIRLADGSRLIQRFNSTHRILDVRNFIVQSRPEFAALDFILVTSFPNKELTDESLTLLEADILNTVLLQQLK
B5: TADA2B, DB fusion (human ORFeome clone) (protein, UniProt Q86TJ2 1-420)
chain: MAELGKKYCVYCLAEVSPLRFRCTECQDIELCPECFSAGAEIGHHRRYHGYQLVDGGRFTLWGPEAEGGWTSREEQLLLDAIEQFGFGNWEDMAAHVGASRTPQEVMEHYVSMYIHGNLGKACIPDTIPNRVTDHTCPSGGPLSPSLTTPLPPLDISVAEQQQLGYMPLRDDYEIEYDQDAETLISGLSVNYDDDDVEIELKRAHVDMYVRKLKERQRRKNIARDYNLVPAFLGKDKKEKEKALKRKITKEEKELRLKLRPLYQFMSCKEFDDLFENMHKEKMLRAKIRELQRYRRNGITKMEESAEYEAARHKREKRKENKNLAGSKRGKEDGKDSEFAAIENLPGFELLSDREKVLCSSLNLSPARYVTVKTIIIKDHLQKRQGIPSKSRLPSYLDKVLKKRILNFLTESGWISRDAS
B6: GLRX3, DB fusion (human ORFeome clone) (protein, UniProt O76003 1-335)
chain: MAAGAAEAAVAAVEEVGSAGQFEELLRLKAKSLLVVHFWAPWAPQCAQMNEVMAELAKELPQVSFVKLEAEGVPEVSEKYEISSVPTFLFFKNSQKIDRLDGAHAPELTKKVQRHASSGSFLPSANEHLKEDLNLRLKKLTHAAPCMLFMKGTPQEPRCGFSKQMVEILHKHNIQFSSFDIFSDEEVRQGLKAYSSWPTYPQLYVSGELIGGLDIIKELEASEELDTICPKAPKLEERLKVLTNKASVMLFMKGNKQEAKCGFSKQILEILNSTGVEYETFDILEDEEVRQGLKAYSNWPTYPQLYVKGELVGGLDIVKELKENGELLPILRGEN

Key:
Experiment in all cases: two-hybrid; HT-eY2H screen: Ece1 peptides as Gal4 activation domain fusions (AD-Y, called bait, yeast Y8930), human ORFeome clones (n = 13,761) as DB-X fusions (called prey, yeast Y8800); mated and spotted on SC-Leu-Trp, SC-Leu-Trp-His and SC-Leu-His+CHX; positive = activation of GAL1::HIS3 in a CHX-sensitive manner; clones confirmed by Sanger sequencing
[1] = biological target: Ece1-V peptide, Gal4 activation domain fusion (Candida albicans) (UniProt Q07730)
[2] = biological target: Ece1-IV peptide, Gal4 activation domain fusion (Candida albicans) (UniProt Q07730)
[3] = biological target: Ece1-II peptide, Gal4 activation domain fusion (Candida albicans) (UniProt Q07730)
[4] = biological target: Ece1-VIII peptide, Gal4 activation domain fusion (Candida albicans) (UniProt Q07730)
[5] = biological target: Ece1-VI peptide, Gal4 activation domain fusion (Candida albicans) (UniProt Q07730)
[6] = biological target: Ece1-VII peptide, Gal4 activation domain fusion (Candida albicans) (UniProt Q07730)

| Binder | binding [1] | binding [2] | binding [3] | binding [4] | binding [5] | binding [6] |
| --- | --- | --- | --- | --- | --- | --- |
| B1 | binds | binds | binds |  |  |  |
| B2 |  |  | binds | binds | binds |  |
| B3 | binds | binds | binds |  |  |  |
| B4 | binds | binds | binds |  |  |  |
| B5 | binds | no binding | binds | binds | binds | binds |
| B6 | binds | binds | binds |  |  |  |
